Experimental data reported in paper PMC4899616.
These are yes or no findings as the source states them, for the method shown. Binding seen in cells or lysates may run through a third protein. A result given as binding can be weak or reduced; the word gives no strength. Tags and fused reporters may be left off the sequences shown.

Molecular target: T1, BRAT1-3xFlag (Bromodomain and ATPase domain-containing protein 1, AT1G05910) (Arabidopsis thaliana) (UniProt F4IAE9)
T1 sequence: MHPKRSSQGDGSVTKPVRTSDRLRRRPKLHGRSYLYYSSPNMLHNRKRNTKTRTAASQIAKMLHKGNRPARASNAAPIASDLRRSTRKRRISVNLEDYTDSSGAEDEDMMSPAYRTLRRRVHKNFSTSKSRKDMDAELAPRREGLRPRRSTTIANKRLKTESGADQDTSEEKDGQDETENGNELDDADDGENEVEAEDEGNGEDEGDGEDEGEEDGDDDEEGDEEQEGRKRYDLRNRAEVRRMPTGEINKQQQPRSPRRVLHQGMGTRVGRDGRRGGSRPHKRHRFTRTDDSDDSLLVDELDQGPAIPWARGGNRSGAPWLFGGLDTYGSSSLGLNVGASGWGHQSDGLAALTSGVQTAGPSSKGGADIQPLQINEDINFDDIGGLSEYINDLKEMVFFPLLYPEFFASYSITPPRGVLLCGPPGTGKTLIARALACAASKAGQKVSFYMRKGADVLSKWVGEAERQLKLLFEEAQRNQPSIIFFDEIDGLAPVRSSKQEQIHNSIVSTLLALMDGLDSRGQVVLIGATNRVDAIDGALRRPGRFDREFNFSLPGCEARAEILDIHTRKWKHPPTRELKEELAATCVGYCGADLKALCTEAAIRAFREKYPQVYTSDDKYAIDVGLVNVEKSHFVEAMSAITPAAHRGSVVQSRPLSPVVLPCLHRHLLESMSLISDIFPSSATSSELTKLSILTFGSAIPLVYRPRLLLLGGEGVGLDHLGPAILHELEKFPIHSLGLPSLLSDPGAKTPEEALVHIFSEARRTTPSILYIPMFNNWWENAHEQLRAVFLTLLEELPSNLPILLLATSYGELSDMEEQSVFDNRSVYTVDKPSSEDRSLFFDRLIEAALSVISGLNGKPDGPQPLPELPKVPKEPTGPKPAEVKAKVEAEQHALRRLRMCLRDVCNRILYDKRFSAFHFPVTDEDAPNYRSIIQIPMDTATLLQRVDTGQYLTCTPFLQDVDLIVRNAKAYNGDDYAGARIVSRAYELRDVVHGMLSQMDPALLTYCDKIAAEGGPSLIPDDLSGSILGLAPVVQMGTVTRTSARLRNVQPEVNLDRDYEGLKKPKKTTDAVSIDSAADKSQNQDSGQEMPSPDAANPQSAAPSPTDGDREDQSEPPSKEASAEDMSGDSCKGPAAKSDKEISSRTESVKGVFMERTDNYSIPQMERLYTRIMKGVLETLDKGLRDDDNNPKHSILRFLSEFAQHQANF
Assay: co-IP; Anti-Flag M2 Affinity Gel on lysate of plants from crosses carrying BRAT1-Flag and BRP1-Myc or ROS1-Myc, 4 °C 2.5 h, Lysis buffer; eluted with 3xFlag peptides; western blot

In the case of “BRP1-3xMyc (BRAT1 Partner 1, AT3G15120) (Arabidopsis thaliana)”, the binding was “binds”.
